According to PMC12872393, “NCOA4 initiates ferritinophagy by avidly binding GATE16 using two short linear interaction motifs” (Life Science Alliance, 2026):
No constants are given. Whether binding was seen depends on the method and setting. Some results given as binding are weak or reduced against the parent protein; the word gives no strength. For part of these data: Sequences can lack the tags named with a protein. Blank lines part the entries; values can stand above or below the binder they belong to.

Sequences of proteins named here, by UniProt entry; tags and fusion partners are left off.
UniProt P60520: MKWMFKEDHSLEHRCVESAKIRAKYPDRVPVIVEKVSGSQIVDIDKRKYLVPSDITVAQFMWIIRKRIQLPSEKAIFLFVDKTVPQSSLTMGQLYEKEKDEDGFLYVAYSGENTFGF

Columns and labels:
[1] = molecular target: T1, biotinylated AviTag-His6-NCOA4^383−522-MBP (human), Q13772; assay: SEC-MALS; 100 μl of 1 mg/ml protein on a WTC-030 column; 20 mM Tris, 150 mM NaCl, pH 7.5; 0.5 ml/min; both purified; settings: remark: other sources report otherwise
T1 chain: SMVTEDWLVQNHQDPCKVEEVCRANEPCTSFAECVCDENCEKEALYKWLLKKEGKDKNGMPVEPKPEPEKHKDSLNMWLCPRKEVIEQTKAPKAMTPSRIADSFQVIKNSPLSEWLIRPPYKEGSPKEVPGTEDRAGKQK

[2] = molecular target: monomeric GATE16 (mGATE16) (UniProt P60520); assay: fluorescence polarisation; competition anisotropy: 1.5 μM mGATE16 with 10 nM labeled ATG4B peptide; increasing unlabeled peptide; 20 mM Tris, 150 mM NaCl, pH 7.5; RT; both purified

binding [1]: no binding (tested: 1 mg/ml)
B1: biotinylated AviTag-His6-NCOA4^383−522-MBP, Q13772 383-522 (domain or fragment)
chain: T1 chain
modifications: here or on the partner: biotin on the AviTag (BirA co-expressed); biotin on the AviTag (BirA co-expressed)

binding [2]: binds weakly
Binder: NEPCTSFAECVCDENCEKEA [FAECV peptide (…), unlabeled]

binding [2]: binds weakly
Binder: TKAPKAMTPSRIADSFQVI [SFQVI peptide (…), unlabeled]
